Assay results from paper PMC8548913, “Piezo1–Pannexin1 complex couples force detection to ATP secretion in cholangiocytes” (The Journal of General Physiology, 2021).
These are yes or no findings as the source states them, for the method shown. In cells and extracts the contact can be indirect. Some results given as binding are weak or reduced against the parent protein; the word gives no strength.

Protein sequences, listed by entry. Tags and fused reporters are not part of them.
UniProt Q9JIP4: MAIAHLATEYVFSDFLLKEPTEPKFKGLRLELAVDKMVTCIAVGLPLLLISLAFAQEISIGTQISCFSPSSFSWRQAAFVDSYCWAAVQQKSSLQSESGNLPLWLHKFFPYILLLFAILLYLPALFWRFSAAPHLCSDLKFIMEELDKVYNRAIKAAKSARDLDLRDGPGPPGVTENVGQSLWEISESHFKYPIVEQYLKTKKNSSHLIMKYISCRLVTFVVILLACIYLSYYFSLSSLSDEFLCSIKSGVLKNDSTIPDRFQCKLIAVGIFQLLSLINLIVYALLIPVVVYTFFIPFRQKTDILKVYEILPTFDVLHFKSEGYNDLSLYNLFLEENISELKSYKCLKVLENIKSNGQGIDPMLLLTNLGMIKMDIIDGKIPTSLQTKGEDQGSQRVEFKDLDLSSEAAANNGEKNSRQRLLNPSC
UniProt E2JF22: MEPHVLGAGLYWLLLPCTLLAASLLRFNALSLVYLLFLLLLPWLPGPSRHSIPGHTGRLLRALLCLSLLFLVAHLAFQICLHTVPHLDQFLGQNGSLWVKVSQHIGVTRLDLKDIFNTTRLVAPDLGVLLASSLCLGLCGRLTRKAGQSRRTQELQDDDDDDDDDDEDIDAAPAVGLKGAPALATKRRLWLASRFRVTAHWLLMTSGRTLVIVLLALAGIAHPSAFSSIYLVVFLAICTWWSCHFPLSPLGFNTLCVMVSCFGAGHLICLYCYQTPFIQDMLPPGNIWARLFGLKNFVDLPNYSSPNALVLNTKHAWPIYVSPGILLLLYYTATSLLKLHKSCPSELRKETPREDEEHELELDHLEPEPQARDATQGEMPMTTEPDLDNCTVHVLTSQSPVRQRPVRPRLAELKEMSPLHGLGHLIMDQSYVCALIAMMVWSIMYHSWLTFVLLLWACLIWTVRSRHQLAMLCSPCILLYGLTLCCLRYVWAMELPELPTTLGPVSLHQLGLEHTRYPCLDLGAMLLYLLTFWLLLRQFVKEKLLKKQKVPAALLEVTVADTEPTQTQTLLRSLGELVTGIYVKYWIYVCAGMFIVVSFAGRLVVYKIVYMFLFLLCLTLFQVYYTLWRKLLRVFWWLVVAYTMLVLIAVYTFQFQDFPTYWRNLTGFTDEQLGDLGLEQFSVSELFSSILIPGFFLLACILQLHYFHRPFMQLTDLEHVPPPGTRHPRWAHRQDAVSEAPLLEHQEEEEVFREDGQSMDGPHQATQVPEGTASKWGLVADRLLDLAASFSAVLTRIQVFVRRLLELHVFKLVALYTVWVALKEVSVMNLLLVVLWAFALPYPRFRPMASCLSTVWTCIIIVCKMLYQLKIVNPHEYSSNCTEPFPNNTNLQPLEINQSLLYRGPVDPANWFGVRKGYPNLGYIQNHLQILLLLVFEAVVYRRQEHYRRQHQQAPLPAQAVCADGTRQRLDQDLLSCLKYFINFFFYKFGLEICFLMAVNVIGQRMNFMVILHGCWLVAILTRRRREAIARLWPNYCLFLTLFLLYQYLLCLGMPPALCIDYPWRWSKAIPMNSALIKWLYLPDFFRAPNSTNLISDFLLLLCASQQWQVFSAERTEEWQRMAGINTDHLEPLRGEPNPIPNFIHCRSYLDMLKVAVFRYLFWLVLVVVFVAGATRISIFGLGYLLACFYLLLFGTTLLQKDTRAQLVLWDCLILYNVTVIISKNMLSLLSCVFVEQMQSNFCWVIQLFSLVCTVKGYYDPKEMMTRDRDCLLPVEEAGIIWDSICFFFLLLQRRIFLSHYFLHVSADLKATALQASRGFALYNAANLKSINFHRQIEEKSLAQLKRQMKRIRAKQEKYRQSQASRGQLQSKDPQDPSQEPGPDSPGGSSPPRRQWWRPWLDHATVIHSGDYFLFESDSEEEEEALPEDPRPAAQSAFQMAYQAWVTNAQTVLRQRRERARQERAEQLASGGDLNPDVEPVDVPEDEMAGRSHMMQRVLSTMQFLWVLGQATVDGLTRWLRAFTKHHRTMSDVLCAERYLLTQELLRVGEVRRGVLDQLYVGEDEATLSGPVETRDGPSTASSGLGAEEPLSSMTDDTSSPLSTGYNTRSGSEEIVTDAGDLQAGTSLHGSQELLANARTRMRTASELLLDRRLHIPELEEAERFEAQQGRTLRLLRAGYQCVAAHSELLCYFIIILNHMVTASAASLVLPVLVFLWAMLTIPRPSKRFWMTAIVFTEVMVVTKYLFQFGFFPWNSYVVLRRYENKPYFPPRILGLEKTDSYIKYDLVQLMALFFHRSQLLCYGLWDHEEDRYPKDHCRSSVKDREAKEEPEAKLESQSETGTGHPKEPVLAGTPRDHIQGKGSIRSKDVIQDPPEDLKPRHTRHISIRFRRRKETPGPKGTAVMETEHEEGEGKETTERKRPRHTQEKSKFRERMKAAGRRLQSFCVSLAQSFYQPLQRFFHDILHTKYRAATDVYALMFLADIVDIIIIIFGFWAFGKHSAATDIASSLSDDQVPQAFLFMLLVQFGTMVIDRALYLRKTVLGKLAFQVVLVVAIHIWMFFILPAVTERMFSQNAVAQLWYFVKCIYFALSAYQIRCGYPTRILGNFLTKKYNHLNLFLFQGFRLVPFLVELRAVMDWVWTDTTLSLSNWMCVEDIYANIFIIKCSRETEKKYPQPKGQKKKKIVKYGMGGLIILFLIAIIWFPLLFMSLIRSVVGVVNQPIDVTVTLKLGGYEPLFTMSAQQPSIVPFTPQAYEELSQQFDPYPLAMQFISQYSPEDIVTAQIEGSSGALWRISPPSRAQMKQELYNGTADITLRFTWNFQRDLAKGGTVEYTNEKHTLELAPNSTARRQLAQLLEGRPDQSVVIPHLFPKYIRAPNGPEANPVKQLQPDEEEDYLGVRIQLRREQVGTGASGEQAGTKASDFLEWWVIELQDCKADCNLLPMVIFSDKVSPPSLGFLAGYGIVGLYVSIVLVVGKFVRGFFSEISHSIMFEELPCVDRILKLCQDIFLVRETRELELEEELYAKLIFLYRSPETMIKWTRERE

Key:
[1] = target: flag-tagged mPanx1 (mouse) (UniProt Q9JIP4); experiment: co-IP; lysates of cotransfected HEK293T-P1KO cells; protein A magnetic beads coated with rabbit polyclonal anti-flag (10 ug) or anti-GFP (5 ug) antibody, 1 h; washed with PBS-Tween 0.1% at room temperature; immunoblot against the tags; anti-Ki67 as control antibody
[2] = target: Piezo1 (endogenous, normal mouse cholangiocytes) (mouse (endogenous in NMC)) (UniProt E2JF22); experiment: co-IP; NMC lysate; Dynabeads coimmunoprecipitation kit with rabbit polyclonal anti-Piezo1 (Thermo Fisher Scientific) or anti-Ki67 covalently linked to magnetic beads; extraction buffer with 150 mM NaCl, 20 mM N-ethylmaleimide, 1.2% Triton X-100; immunoblot with anti-Panx1
[3] = target: GFP-tagged mPiezo1 (mouse) (UniProt E2JF22); experiment: co-IP; lysates of cotransfected HEK293T-P1KO cells; protein A magnetic beads coated with rabbit polyclonal anti-flag (10 ug) or anti-GFP (5 ug) antibody, 1 h; washed with PBS-Tween 0.1% at room temperature; immunoblot against the tags; anti-Ki67 as control antibody

## GFP-tagged mPiezo1 (from UniProt E2JF22 1-2547)
[1]
  binding: binds

## Panx1 (endogenous, normal mouse cholangiocytes) (from UniProt Q9JIP4 1-426)
[2]
  binding: binds

## flag-tagged mPanx1 (from UniProt Q9JIP4 1-426)
[3]
  binding: binds
